Reference: PubChem BioAssay AID652248 (Drosophila RNAi Screening Center, 2013)
The deposit covers 863 reagents; this is a part drawn at random. Of all reagents, 32 (3.7%) are marked active. 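Calls also used reproducibility and a similarity ranking whose scores are not deposited; many active genes show only modest elongated scores.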 A number with no mark means an inactive call. The numbers tell different reagents against one gene apart. Reagent sequences are not shown. Not stated in the record: the amount of reagent, the time to read-out.

- Test: 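Kinases and phosphatases whose loss pushes fly blood cells toward elongated shapes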 (primary screen)
- Cell system: cultured Drosophila hemocytes
- Reagent: long dsRNA against Drosophila genes
- Measurement: 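Automated microscopy of stained actin, tubulin and nuclei; single-cell shape measures assigned to five reference shape types, giving a score per dsRNA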
- Scale: elongated score: higher = more elongated bipolar cells; normal round score: higher = more normal rounded cells; teardrop score: higher = more small teardrop-shaped cells
- Rule for the call: 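Hits show a significant increase of elongated cells; higher rank given where elongated cells rose as other shape types fell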

target gene	reagent no.	elongated score, rep 1	elongated score, rep 2	normal round score, rep 1	teardrop score, rep 1
Aduk (GeneID 41112)	1	-0.53		0.76	-0.71
Aduk (GeneID 41112)	2	0.46		0.07	-0.08
Ptp36E (GeneID 35091)	1	-0.11		-2.61	1.79
Pi3K68D (GeneID 39329)	1	-0.53		0.09	0.3
Pi3K68D (GeneID 39329)	2	0.42		-1.3	1.89
Akap200 (GeneID 34170)	1	-0.12		0.84	-1.1
Sk2 (GeneID 326219)	1	-0.31		-0.11	0.43
Cep97 (GeneID 33610)	1	-0.27		-0.51	0.59
BubR1 (GeneID 35522)	1	0.07		-0.81	0.67
PpY-55A (GeneID 48532)	1	6.37		-3.24	1.59
PpY-55A (GeneID 48532)	2	-0.39		-0.18	0.4
PpY-55A (GeneID 48532)	3	0.14		-0.8	0.64
Ilk (GeneID 53573)	1	1.76		-1.69	1.52
CkIIalpha (GeneID 48448)	1	0.91		-0.31	-1.02
CG2104 (GeneID 40702)	1	-0.53		0.69	-1.23
p38b (GeneID 34780)	1	-0.53		-1.72	1.88
sgg (GeneID 31248)	1	-0.05		-0.21	-0.88
sgg (GeneID 31248)	2	-0.29		0.26	-0.78
sgg (GeneID 31248)	3	-0.35		0.81	-0.68
sgg (GeneID 31248)	4	2.37		-1.98	2.25
CkIIbeta (GeneID 32132)	1	-0.53		0.42	-0.2
JIL-1 (GeneID 39241)	1	-0.53		-1.22	2.23
nonC (GeneID 31625)	1	-0.53	3.69	-0.98	0.88
nonC (GeneID 31625)	2	0.25		0.13	-0.44
dop (GeneID 39686)	1	-0.32 (active)		0.38	-0.26
dop (GeneID 39686)	2	6.42 (active)		-3.65	0.6
CG7094 (GeneID 35065)	1	0.27		-2.23	1.03
CG7094 (GeneID 35065)	2	1.96		-1.29	0.47
mop (GeneID 39610)	1	-0.26		0.42	-0.24
mop (GeneID 39610)	2	-0.03		-1.45	2.08
Lkb1 (GeneID 41673)	1	-0.53		-0.13	0.4
Pgk (GeneID 33461)	1	-0.24		0.51	-0.3
Pgk (GeneID 33461)	2	-0.32		0.28	-0.53
Pgk (GeneID 33461)	3	0.12		-0.52	0.5
Pka-C1 (GeneID 34284)	1	-0.31		0.25	-0.03
Pka-C1 (GeneID 34284)	2	-0.41		-0.99	1.03
Pka-C1 (GeneID 34284)	3	1.76		-5.51	6.84
otk (GeneID 36283)	1	-0.53		0.82	-0.59
otk (GeneID 36283)	2	2.67		-1.49	0.05
Fcp1 (GeneID 37925)	1	0.64		-0.34	0.39
Fcp1 (GeneID 37925)	2	3.81		-4.44	4.36
Akt (GeneID 41957)	1	0.73		0.76	-0.72
meng (GeneID 33948)	1	0.27		-1.27	1.58
meng (GeneID 33948)	2	-0.3		-1.53	2.56
CG11426 (GeneID 40471)	1	-0.53		-0.51	0.62
CG11426 (GeneID 40471)	2	-0.33		-0.23	-0.37

Ordered by “normal round score, rep 1” (high to low): some entries from above.
target gene	reagent no.	elongated score, rep 1	elongated score, rep 2	normal round score, rep 1	teardrop score, rep 1
sgg (GeneID 31248)	3	-0.35		0.81	-0.68
sgg (GeneID 31248)	2	-0.29		0.26	-0.78
sgg (GeneID 31248)	1	-0.05		-0.21	-0.88
sgg (GeneID 31248)	4	2.37		-1.98	2.25
